Laboratory results published in US10758534B2 (Vertex Pharmaceuticals Incorporated, priority 2014, dated 2020).
At least one structure is not confirmed: it was looked up by name or label, or the drawing left a doubt.

Amino acid sequences for entries named in this document (tags omitted). Chains listed by the source or under a name are the forms on record and can include a tag or linker.
UniProt P13569, with tags, fused parts or gaps DEL508-508: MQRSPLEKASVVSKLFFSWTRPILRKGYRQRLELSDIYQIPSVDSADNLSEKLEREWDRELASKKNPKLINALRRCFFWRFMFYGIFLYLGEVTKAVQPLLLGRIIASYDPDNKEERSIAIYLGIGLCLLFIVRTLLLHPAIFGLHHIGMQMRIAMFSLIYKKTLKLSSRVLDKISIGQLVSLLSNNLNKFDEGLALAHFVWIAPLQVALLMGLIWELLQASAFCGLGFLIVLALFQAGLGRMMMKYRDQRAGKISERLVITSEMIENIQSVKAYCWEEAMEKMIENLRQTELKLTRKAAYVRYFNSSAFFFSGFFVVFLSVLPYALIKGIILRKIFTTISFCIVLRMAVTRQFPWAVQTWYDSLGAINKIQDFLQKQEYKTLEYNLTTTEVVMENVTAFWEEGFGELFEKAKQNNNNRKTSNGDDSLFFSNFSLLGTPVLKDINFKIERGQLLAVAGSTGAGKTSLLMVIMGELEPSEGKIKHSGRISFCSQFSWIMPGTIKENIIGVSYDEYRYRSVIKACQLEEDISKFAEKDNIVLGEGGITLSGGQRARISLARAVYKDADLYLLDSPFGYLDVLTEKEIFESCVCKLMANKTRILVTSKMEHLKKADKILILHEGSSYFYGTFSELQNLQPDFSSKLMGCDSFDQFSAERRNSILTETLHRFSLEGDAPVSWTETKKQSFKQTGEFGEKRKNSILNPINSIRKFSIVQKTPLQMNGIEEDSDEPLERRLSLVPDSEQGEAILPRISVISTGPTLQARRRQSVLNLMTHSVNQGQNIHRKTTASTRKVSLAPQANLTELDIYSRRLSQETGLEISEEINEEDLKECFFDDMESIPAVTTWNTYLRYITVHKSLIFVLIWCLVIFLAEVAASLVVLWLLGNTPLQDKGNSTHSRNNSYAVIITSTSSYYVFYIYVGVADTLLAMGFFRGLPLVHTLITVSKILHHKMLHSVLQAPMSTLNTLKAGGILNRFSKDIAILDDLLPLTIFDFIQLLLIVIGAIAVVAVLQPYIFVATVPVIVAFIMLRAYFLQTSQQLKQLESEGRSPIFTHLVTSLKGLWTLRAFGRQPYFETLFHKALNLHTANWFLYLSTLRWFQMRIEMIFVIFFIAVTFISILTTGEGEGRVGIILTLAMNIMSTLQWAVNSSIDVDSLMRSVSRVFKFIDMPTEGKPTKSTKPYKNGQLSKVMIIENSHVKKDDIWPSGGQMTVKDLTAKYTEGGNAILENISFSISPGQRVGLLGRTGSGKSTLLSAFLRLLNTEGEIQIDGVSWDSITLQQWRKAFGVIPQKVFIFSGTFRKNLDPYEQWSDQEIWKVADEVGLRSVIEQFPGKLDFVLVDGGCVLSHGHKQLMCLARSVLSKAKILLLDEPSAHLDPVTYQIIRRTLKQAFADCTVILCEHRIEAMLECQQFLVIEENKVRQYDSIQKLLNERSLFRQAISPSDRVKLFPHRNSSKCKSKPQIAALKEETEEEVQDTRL

What was measured:
F508del [1] = biological target: T1, F508del (Homo sapiens, UniProt P13569, DEL508-508); experiment: Protocol 2: FRET membrane potential optical assay (VIPR), identification of correction compounds; assay type: cell-based; details: Table 3; compounds of Table 1 as modulators of CFTR activity; protocol not stated
T1 construct: expressed in transfected cells
Description: Membrane potential optical methods for assaying F508del modulation properties of compounds.
These voltage sensitive assays are based on the change in fluorescence resonant energy transfer (FRET) between the membrane-soluble, voltage-sensitive dye, DiSBAC2(3), and a fluorescent phospholipid, CC2-DMPE, which is attached to the outer leaflet of the plasma membrane and acts as a FRET donor. Changes in membrane potential (Vm) cause the negatively charged DiSBAC2(3) to redistribute across the plasma membrane and the amount of energy transfer from CC2-DMPE changes accordingly. The changes in fluorescence emission were monitored using VIPR™ II, which is an integrated liquid handler and fluorescent detector designed to conduct cell-based screens in 96- or 384-well microtiter plates.
To identify small molecules that correct the trafficking defect associated with F508del; a single-addition HTS assay format was developed. The cells were incubated in serum-free medium for 16 hrs at 37° C. in the presence or absence (negative control) of test compound. As a positive control, cells plated in 384-well plates were incubated for 16 hrs at 27° C. to “temperature-correct” F508del. The cells were subsequently rinsed 3× with Krebs Ringers solution and loaded with the voltage-sensitive dyes. To activate F508del, 10 μM forskolin and the CFTR potentiator, genistein (20 μM), were added along with Cl^−-free medium to each well. The addition of Cl^−-free medium promoted Cl^− efflux in response to F508del activation and the resulting membrane depolarization was optically monitored using the FRET-based voltage-sensor dyes.
• Bath Solution #1: (in mM) NaCl 160, KCl 4.5, CaCl2 2, MgCl2 1, HEPES 10, pH 7.4 with NaOH. • Chloride-free bath solution: Chloride salts in Bath Solution #1 (above) are substituted with gluconate salts. • CC2-DMPE: Prepared as a 10 mM stock solution in DMSO and stored at −20° C. • DiSBAC2(3): Prepared as a 10 mM stock in DMSO and stored at −20° C. Cell Culture
(§1) NIH3T3 mouse fibroblasts stably expressing F508del are used for optical measurements of membrane potential. The cells are maintained at 37° C. in 5% CO2 and 90% humidity in Dulbecco's modified Eagle's medium supplemented with 2 mM glutamine, 10% fetal bovine serum, 1×NEAA, β-ME, 1× pen/strep, and 25 mM HEPES in 175 cm^2 culture flasks. For all optical assays, the cells were seeded at 30,000/well in 384-well matrigel-coated plates and cultured for 2 hrs at 37° C. before culturing at 27° C. for 24 hrs for the potentiator assay. For the correction assays, the cells are cultured at 27° C. or 37° C. with and without compounds for 16-24 hours.

F508del [2] = biological target: T1, F508del; experiment: Protocol 1: membrane potential optical assay (FLIPR III, voltage sensing dye), identification of potentiator compounds; assay type: cell-based; details: Table 3, compounds of Table 1
Description: Membrane Potential Optical Methods for Assaying F508del Modulation Properties of Compounds
The assay utilizes fluorescent voltage sensing dyes to measure changes in membrane potential using a fluorescent plate reader (e.g., FLIPR III, Molecular Devices, Inc.) as a readout for increase in functional F508del in NIH 3T3 cells. The driving force for the response is the creation of a chloride ion gradient in conjunction with channel activation by a single liquid addition step after the cells have previously been treated with compounds and subsequently loaded with a voltage sensing dye.
Identification of Potentiator Compounds
To identify potentiators of F508del, a double-addition HTS assay format was developed. This HTS assay utilizes fluorescent voltage sensing dyes to measure changes in membrane potential on the FLIPR III as a measurement for increase in gating (conductance) of F508del in temperature-corrected F508del NIH 3T3 cells. The driving force for the response is a Cl^− ion gradient in conjunction with channel activation with forskolin in a single liquid addition step using a fluorescent plate reader such as FLIPR III after the cells have previously been treated with potentiator compounds (or DMSO vehicle control) and subsequently loaded with a redistribution dye.
Bath Solution #1: (in mM) NaCl 160, KCl 4.5, CaCl2 2, MgCl2 1, HEPES 10, pH 7.4 with NaOH.
Chloride-free bath solution: Chloride salts in Bath Solution #1 (above) are substituted with gluconate salts.
as §1, with “at ˜20,000/well” for “at 30,000/well”, “24 hrs.” for “24 hrs”

Compound | EC30 (F508del [1]) | EC30 (F508del [2])
Cc1cc(C)c(Cn2c(C(=O)NS(=O)(=O)c3cccc(N)c3)cc3ccccc32)c(C)c1 [Compound 148, N-(3-aminophenyl)sulfonyl-1-[(2,4,6-trimethylphenyl)methyl]indole-2-carboxamide] | +++ (“+++” means <3 uM) | 
Cc1cccc(C)c1Cn1nc(-c2cccc(C(=O)O)c2)cc1C(=O)NS(=O)(=O)c1ccccc1 [Compound 343, 3-[5-(benzenesulfonylcarbamoyl)-1-[(2,6-dimethylphenyl)methyl]pyrazol-3-yl]benzoic acid] | +++ (“+++” means <3 uM) | 
Cc1cc(C)c(Oc2nc(-c3cc(C(F)(F)F)nn3C)ccc2C(=O)NS(=O)(=O)c2cc[nH]n2)c(C)c1 [Compound 391, 6-[2-methyl-5-(trifluoromethyl)pyrazol-3-yl]-N-(1H-pyrazol-3-ylsulfonyl)-2-(2,4,6-trimethylphenoxy)pyridine-3-carboxamide] | + (“+” means greater than 10 uM) | 
Cc1cc(C)c(Oc2nc3c(cc2C(=O)NS(=O)(=O)c2ccn[nH]2)CCCC3(C)C)c(C)c1 [Compound 715, 8,8-dimethyl-N-(1H-pyrazol-5-ylsulfonyl)-2-(2,4,6-trimethylphenoxy)-6,7-dihydro-5H-quinoline-3-carboxamide] | +++ (“+++” means <3 uM) | 
CC(C)(C)c1ccc(C(=O)NS(=O)(=O)c2ccc(N)cc2)c(C2CCCC2)n1 [Compound 1003, N-(4-aminophenyl)sulfonyl-6-tert-butyl-2-cyclopentyl-pyridine-3-carboxamide] |  | + (“+” means greater than 10 uM)
Cc1ccc(CN2Cc3ccccc3C2(C)C(=O)NS(=O)(=O)c2cccc(N)n2)c(C)c1 (stereo not drawn) [Compound 1058, N-[(6-amino-2-pyridyl)sulfonyl]-2-[(2,4-dimethylphenyl)methyl]-1-methyl-isoindoline-1-carboxamide] |  | +++ (“+++” means <3 uM)
COc1ncccc1S(=O)(=O)NC(=O)C1c2ccccc2C(C)(C)N1Cc1c(C)cc(C)cc1C (stereo not drawn) [Compound 1235, N-[(2-methoxy-3-pyridyl)sulfonyl]-3,3-dimethyl-2-[(2,4,6-trimethylphenyl)methyl]isoindoline-1-carboxamide] |  | +++ (“+++” means <3 uM)
CC1CN(c2nc(C(C)(C)C)c(C3=CC4CCC3(C)C4(C)C)cc2C(=O)NS(=O)(=O)c2cccc(N)n2)C(C)(C)C1 (stereo not drawn) [Compound 1578, N-[(6-amino-2-pyridyl)sulfonyl]-6-tert-butyl-5-(4,7,7-trimethyl-3-bicyclo[2.2.1]hept-2-enyl)-2-(2,2,4-trimethylpyrrolidin-1-yl)pyridine-3-carboxamide] |  | +++ (“+++” means <3 uM)
Cc1cccc(C)c1Oc1nc(-c2cc(F)cc(OCC(C)C)c2)ccc1C(=O)NS(=O)(=O)c1ccc(OCc2ccccc2)c(N)n1 [Compound 1762, N-[(6-amino-5-benzyloxy-2-pyridyl)sulfonyl]-2-(2,6-dimethylphenoxy)-6-(3-fluoro-5-isobutoxy-phenyl)pyridine-3-carboxamide] |  | +++ (“+++” means <3 uM)
